From PubChem BioAssay AID624297 (National Center for Advancing Translational Sciences (NCATS), 2012)
The whole screen tested about 340,000 compounds, of which about 6,200 (1.8%) were called active. Inconclusive means that the source gave no clear call. Such entries were picked first, then a sample of the others. Calls follow the shape of the dose curve; as a rule, active = well fitted activation curve with a large enough effect; inconclusive = small, poorly fitted or top-dose-only effect; inactive = no such curve, though single readings can be large or run the other way. A potency beside an inconclusive call is a rough fit, not a confirmed value.

Experiment: A quantitative high throughput screen for small molecules that induce DNA re-replication in SW480 colon adenocarcinoma cells. Also: nearly all actives have a fitted effect of over 55% in size. As to re-replication activation: % of control where 0% means no effect.
Conditions: Hoechst DNA content imaging, 48 h; re-replication activation: at 46.1 µM (top of the series)
In short: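 Compounds, transferred as 23 nL by pin tool, were incubated with cells for 48 hr; DNA content per nucleus was then quantified by Hoechst staining and fluorescence plate imaging.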
Potency is read from the fitted curve at half-maximal effect.

Compound	Potency	re-replication activation
CCN(CC)CCNc1cc(C)nc2c1C(=O)C(=O)C=C2N1CCCCC1	inconclusive: 16.4 µM [activator, single point]	
O=C(N[C@@H](Cc1ccccc1)C(=O)N1CCN(S(=O)(=O)c2ccccc2F)CC1)c1ccco1		inactive: 1.44%
Nc1c(C(=O)NC23CC4CC(CC(C4)C2)C3)sc2nc3c(c(C(F)(F)F)c12)CCC3	inconclusive: 32.6 µM [activator, partial curve, poor fit]	
CCc1ccc(/C=C2/SC(N3CCOCC3)=NC2=O)cc1		inactive: -38.1%
CC(=O)Nc1ccc2c(c1)Cc1c(F)cccc1-2	inconclusive: 29.1 µM [activator, single point]	
CCOc1ccc2nc(Cl)c(/C=C/C(=O)c3ccco3)cc2c1		inactive: 15.8%
COCCN(Cc1ccccc1)C(=O)c1cccc(S(=O)(=O)N2CCN(c3ccccc3)CC2)c1	inconclusive: 29.1 µM [activator, partial curve, poor fit]	
CC(C)NC(=S)NN=C1CCCCCCCCCCC1	inconclusive: 3.26 µM [activator, single point]	
COc1ccc(C2C(C(=O)Nc3cccc(C)n3)CCC(=O)N2c2ccc(OC)cc2)cc1 (stereo not drawn)	inconclusive: 0.651 µM [activator, partial curve, poor fit]	
Cc1nn(Cc2noc(C(=O)NCc3ccc4c(c3)OCO4)n2)c(C)c1Br		inactive: -9.88%
CCCCOC(=O)Nc1nc2ccc(OC)cc2s1		inactive: -25.3%
CNc1nc(Cl)c(SC)c(NCc2cccc(OC)c2)n1	inconclusive: 29.1 µM [activator, single point]	
Brc1ccc2ncnc(Nc3ccc(N4CCOCC4)cc3)c2c1	inconclusive: 16.4 µM [activator, partial curve, poor fit]	
COc1ccc(-n2c(CNc3ccc(C)cc3)nnc2SCC(=O)Nc2nc(-c3ccccc3)cs2)cc1	inconclusive: 29.1 µM [activator, single point]	
COc1ccc(Cl)cc1NC(=S)NN1CCOCC1		inactive: -9.47%
Cc1ccc(C2(C)NC(=O)N(CC(=O)NCc3cccc(Cl)c3)C2=O)cc1 (stereo not drawn)		inactive: -10.6%
Cn1ccc2cc(NC(=O)Nc3cccnc3)ccc21	inconclusive: 31.6 µM [activator, single point]	
CCCc1cc(=O)[nH]c(SCC(=O)N2c3ccccc3CC2C)n1 (stereo not drawn)		inactive: -1.84%
Cc1cc(O)c(/C=N/Nc2ccc(F)cc2)c(=O)o1	inconclusive: 13 µM [activator, partial curve]	
COCCNc1nc2c(c(=O)n(Cc3cccc(Cl)c3)c(=O)n2C)n1C	inconclusive: 1.46 µM [activator, full curve, poor fit]	
COc1ccc(-c2cc(C(=O)Nc3ccc(S(N)(=O)=O)cc3)c3ccccc3n2)cc1OC	active: 5.8 µM	
CC(C)(C)NC(=O)C[C@H]1C[C@H](C(=O)N2CCCCC2)[C@@]2(C)c3[nH]c4ccc(Cl)cc4c3CCN2C1=O	inconclusive: 1.3 µM [activator, full curve, poor fit]	

Compound	Potency	re-replication activation
O=C(N/N=C/c1cc(Br)cc([N+](=O)[O-])c1O)c1ccc(NC(=O)c2ccc(F)cc2)cc1	inconclusive: 3.26 µM [activator, partial curve, poor fit]	
N=C1S/C(=C\c2ccc(O)cc2)C(=O)N1c1ccc(F)cc1		inactive: 14.6%
O=C(Oc1c(-c2ccccc2)c(=O)n2c3c(cccc13)CC2)c1ccco1	inconclusive: 29.1 µM [activator, partial curve, poor fit]	
Cc1cc(NC(=O)/C=C/c2ccc(Cl)cc2)no1	active: 6.51 µM	
COCCn1c(=O)[nH]c2cc(C(=O)N3CCN(c4cccc(Cl)c4)CC3)ccc2c1=O	inconclusive: 9.2 µM [activator, single point]	
Cc1cccc(NC(=O)CCN2CCN(C/C=C/c3ccccc3)CC2)c1	inconclusive: 29.1 µM [activator, single point]	
CC(=O)Nc1nc(SCC(=O)NCC2CCCO2)[nH]c(=O)c1NC(=O)c1cccs1 (stereo not drawn)	inconclusive: 1.3 µM [activator, partial curve, poor fit]	
COc1ccc(-n2nc(C(=O)NCC(=O)NCCc3ccc(OC)c(OC)c3)c3ccccc3c2=O)cc1		inactive: -0.529%
N#CCCN1CCN(S(=O)(=O)c2ccc3c(c2)CCC3)CC1	inconclusive: 0.92 µM [activator, full curve, poor fit]	
O=C(c1ccc(Cl)cc1)c1oc2ccccc2c1CS(=O)c1ccc(Cl)cc1 (stereo not drawn)		inactive: -1.72%
Cc1c(N=C2N=C(NC(=O)NC(C)(C)C)c3ccccc32)c(=O)n(-c2ccccc2)n1C	inconclusive: 29.1 µM [activator, single point]	
Cc1cccc(N2C(=O)CC(Sc3nc(-c4ccccc4)c4cc(Cl)ccc4n3)C2=O)c1 (stereo not drawn)		inactive: -4.58%
CCN(CC)S(=O)(=O)c1ccc(N(C)C)c(NC(=O)CSCc2c(C)noc2C)c1	inconclusive: 23.1 µM [activator, single point]	
Cc1nnc(-c2ccc(Oc3ccc(Br)cc3)c([N+](=O)[O-])c2)o1	inconclusive: 0.92 µM [activator, full curve, poor fit]	
S=C(NCc1cccs1)Nc1cccc(Cl)c1	inconclusive: 29.1 µM [activator, single point]	
Cc1ccc(C(=O)NCC(=O)OCC(=O)Nc2ncc(C(F)(F)F)cc2Cl)cc1	inconclusive: 1.03 µM [activator, full curve, poor fit]	
COc1ccc(OCC(O)CNC(=O)c2ccc(OC)cc2)cc1 (stereo not drawn)		inactive: -10.6%
O=C(CSc1nnc(Cn2nnc3ccccc32)o1)N(Cc1ccc(Cl)cc1)c1ccccc1		inactive: 2.57%
Nc1nonc1-c1nc2ccccc2n1Cc1ccccc1	inconclusive: 29.1 µM [activator, single point]	
CC(C)(C)c1ccc(C(=O)C2CCCN(C(=O)CCn3cncn3)C2)cc1 (stereo not drawn)	inconclusive: 29.1 µM [activator, single point]	
O=[N+]([O-])c1cccc(N/N=C/c2cccc(O)c2O)c1	inconclusive: 18.4 µM [activator, single point]	

An excerpt of these results, bar-delimited:
Compound | Potency | re-replication activation
Cc1cccc(NC(=O)CCN2CCN(C/C=C/c3ccccc3)CC2)c1 | inconclusive: 29.1 µM [activator, single point] | 
N#CCCN1CCN(S(=O)(=O)c2ccc3c(c2)CCC3)CC1 | inconclusive: 0.92 µM [activator, full curve, poor fit] | 
COc1ccc(OCC(O)CNC(=O)c2ccc(OC)cc2)cc1 (stereo not drawn) |  | inactive: -10.6%
